Source: ChEMBL document CHEMBL3988442, “University of Dundee, Small-Polar-MMV Screening Library” (2021).

Each number is a percent effect as filed. How 0% and 100% were set is not recorded. Most values in the screen are low, and negative values occur. This is an unselected part of the compounds tested.

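Assay of Toxoplasma gondii numbers, read through their beta-galactosidase reporter with a colour substrate. Concentration: 50 µM. Higher reads as fewer parasites (inferred from which compounds were picked for retests). Size under these conditions: about 18,000 compounds, about 170 of them at 50% or above in at least one test.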

- O=C(CCc1ccccn1)Nc1ccc(CCO)cc1 | 10.57%
- NCc1cnc(-c2ccccc2)nc1 | -13.3%
- Nc1ccc(C(=O)N2CCN(C3CC3)CC2)cn1 | 4.713%
- CNCc1nc2c(s1)CCCC2 | -0.4555%
- COCCCNC(=O)NCCC(=O)OC(C)(C)C | -3.076%
- CC(C)[C@H]1CN(S(=O)(=O)N2CCCCCC2)C[C@@H]1N | 3.838%
- CC1CN=C(N2CCN(Cc3cscn3)CC2)S1 (stereo not given) | -3.458%
- CN1CCN(c2cc(C3CC(N)C3)nc(N)n2)CC1 (stereo not given) | 14.27%
- COc1cccc(-c2cnn(CCC(N)=O)c2)c1F | -9.876%
- Cn1ncc(N2CCC(CNC(=O)CO)C2)cc1=O (stereo not given) | -4.662%
- CN(CC(C)(C)O)C(=O)NCC[S+]([O-])c1ccccc1 (stereo not given) | -3.205%
- CC(OC(=O)CCNC(=O)Nc1ccccc1)C(N)=O (stereo not given) | -7.811%
- N#CC1(NC(=O)CN2CCOCC2)CCCCC1 | -0.1293%
- N#CC1(NC(=O)c2ccncc2Cl)CCSCC1 | 4.137%
- COc1ccc(C(CN)CO)cc1OC (stereo not given) | -41.39%
- CN(C)[C@@H]1CN(C(=O)c2cncn2C)C[C@H]1CO | 3.186%
- CCNC(=O)CNc1ccc(Br)cc1 | -9.939%
- C1CCC(NC2CCNCC2)C1 | 12.83%
- CSCC(CCO)NC(=O)c1coc2ccccc12 (stereo not given) | -6.179%
- CC(C)c1noc(CN2CCC(CC(N)=O)CC2)n1 | -9.667%
- COc1ccccc1CC#N | 14.35%
- COC(=O)c1cnc(F)cn1 | 53.27%
- Cc1cc(CN)n(C)n1 | 14.05%
- CCC(C)C(=O)NCCNc1ccc(C(F)(F)F)cn1 (stereo not given) | -2.82%
- OC[C@H](Cc1ccc(O)cc1)NC1CCSC1 (stereo not given in full) | -10.27%
- Cc1ccc(C(=O)NCc2nnc(N)o2)cc1Br | -5.562%
- Cc1cc(C(=O)NCCc2noc(C3CC3)n2)[nH]n1 | 12.77%
- NC1CCN(C(=O)c2ccccc2Cl)C1 (stereo not given) | -0.9615%
- Cc1cc(C)n(CC(=O)NCc2ccc(F)cc2)n1 | -1.134%
- CCS(=O)(=O)N1CCC(NCc2cnn(C)c2)CC1 | 2.58%
- Cc1ccccc1CC(=O)NC1CCS(=O)(=O)C1 (stereo not given) | -1.427%
- CC(C)(CN)CN1CCCC1 | 0.3787%
- CC(C)=CCN1CCC(N)CC1 | 2.134%
- CC(CN1CCOCC1)NC(=O)Nc1ccccn1 (stereo not given) | 1.619%
- CN(CCc1ccncc1)CCN1CCCC1=O | -0.5674%
- CN1CC2(CCN(Cc3nccs3)CC2)OC1=O | -1.367%
- CS(=O)(=O)CCN1C[C@H](C2CC2)[C@@H](N)C1 | 1.077%
- NCc1cc2c([nH]c1=O)CCCC2 | -3.753%
- C[C@@H]1CN(C(=O)c2ccc(=O)[nH]c2)C[C@]1(C)O | 3.055%
- CNC(=O)C(NC(=O)c1cnccn1)c1ccccc1 (stereo not given) | -11.91%
- Cc1c[nH]c(CN(C)C(=O)CN2CCOCC2)n1 | 2.673%
- CN(C)C(=O)c1ccc(-n2cccc2)c(F)c1 | -6.062%
- CCN1CCN(CC(=O)Nc2ccc(C)cc2C)CC1 | 1.848%
- COc1cc(CN2CCN(C(C)=O)CC2)cc(Br)c1O | -11.73%
- CNC(C)c1ccccn1 (stereo not given) | 5.492%
- c1c[nH]c(CC2CCNCC2)n1 | 0.5626%
- Cn1nccc1C(=O)N1CCN(c2ncccn2)CC1 | 2.712%
- CC(C1CC1)N(C)C(=O)C1CC1 (stereo not given) | 2.667%
- COc1ccnc(N2CCN(C(=O)CSC)CC2)n1 | -23.68%
- COC(=O)C(C)CN(C)C(=O)C1CCOCC1 (stereo not given) | 7.145%
- NC(=O)c1cccc2[nH]ccc12 | -3.436%
- CSCC(=O)Nc1ccc(C(=O)NCC(F)(F)F)cc1 | -3.028%
- NC1CCN(Cc2ccccc2F)CC1 | -7.565%
- COC(=O)N1CCC(NC(=O)CCc2ccsc2)C1 (stereo not given) | -6.257%
- CC(C)(C)SCCN1CCOC2(CCOCC2)C1 | 13.79%

For reference, 6 entries once more:

SMILES	Percent Effect
CC(C)(CN)CN1CCCC1	0.3787%
COc1ccnc(N2CCN(C(=O)CSC)CC2)n1	-23.68%
COC(=O)N1CCC(NC(=O)CCc2ccsc2)C1 (stereo not given)	-6.257%
Cc1cc(C)n(CC(=O)NCc2ccc(F)cc2)n1	-1.134%
CCC(C)C(=O)NCCNc1ccc(C(F)(F)F)cn1 (stereo not given)	-2.82%
NCc1cc2c([nH]c1=O)CCCC2	-3.753%